Results reported in publication PMC8468769.

Sequences of proteins named here, by UniProt entry; tags and fusion partners are left off. A change or cut given only in a name is not applied to a line headed by its entry.
UniProt F7VN14: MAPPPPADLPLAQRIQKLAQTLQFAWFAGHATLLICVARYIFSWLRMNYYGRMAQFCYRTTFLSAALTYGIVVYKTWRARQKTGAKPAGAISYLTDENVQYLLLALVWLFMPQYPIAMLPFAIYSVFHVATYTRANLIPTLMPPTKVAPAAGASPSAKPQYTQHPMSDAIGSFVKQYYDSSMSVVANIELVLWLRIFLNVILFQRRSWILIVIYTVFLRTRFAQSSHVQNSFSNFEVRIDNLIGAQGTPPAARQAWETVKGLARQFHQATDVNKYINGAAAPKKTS

B1: dolichyl-phosphate-mannose-protein mannosyltransferase (SMAC_02375) (protein, UniProt F7VPD9 1-750)
chain: MAAPTVGSERATMVSGADPLGDAVRRRNVASVTPTAFETPQSVDNKKAVVPVKKEQSFLDSIASREWIIAPLVFTFLAFFTRFYKIGLSPIVTWDEAHFGKFGSHYLKREFYFDVHPPAGKLLVGLSGLLAGYNGSFEFKSGETYPEEINYTFMRQFNAFWGAVCVPMAYYTAKELRFKLPAVWLVTLMVLCENSYTTISRFILLDSMLLFGTVATTLCWAKFHNLRRKSFSPEWFSWLFLTGLSIGFVCSVKWVGLFVTALVGLYTVEDLWNKFGDVKMPPKVLAAHFAARVVGLIILPFAIYLMSFAIHFIVLTNSGPGDAQMPSLFQANLRGTEVGRDSPLELALGSRVTIKNMGYGGGLLHSHVQTYPEGSNQQQVTCYHHKDSNNDWFFYPNRREQAYDESSDEIRYIGDGSTVRLIHAQTGRNLHSHEIPAPMTKADKEVSCYGNLTVGDEKDHWKIEVVKDTNSRDRSKIRTLTTAFRLKHEVLGCYLRAGTVNLPQWGFKQIETTCTKTNNPRDTYTHWNVESHTNPKLPPAEPGQYKNQFFQDFIHLNVAMMTSNNALVPDPDKQDDLASQWWQWPILHVGLRMCSWDDKTVKYFLLGNPLVYWGSTAGLGVFGLLVIWYTLRWQRGYNELNQDSIDQIHYAGIYPVIGWFLHYLPFIVMGRVTYVHHYYPALYFAILSFGFLADWFFRGKSKLTQSIGFGILYATVIGLYIFFMPISWGMVGPNQQYKYMKWFDNWRISD
B2: reticulon-like protein (SMAC_00989) (protein, UniProt F7VNL7 1-361)
chain: MADNYAPADNYTLSGHHSNGSANLNPGSTNLDALKNNAASAYDAVTKGPVAQNVADQGAKTVDELSNLSASRRTPSTPAATGQPLTHYHSFFSELLSWNNPRASAIAYLSVVAGIFFVRYFDVLRLGFKLTWMVLGATVAAEVAGRTVLNQGLTTQLRPRKYYTVSKQTLDSAIGDVHELVNFFVIEAQRVLFAENVYVSGLVALSAFFAYYLVKIVPYWGLALVSTTLAFLGPLVYKTNKEVIDAQLHRASDVIGAQTAQLKTVAQQNTEKATQLTKQYVGEYTAKAQTLVGKATPASLSGEDHTNGHANGHADNLSTLREADFPPAPRADIKTELAAPIEPVVAVPVTVKSGEQQPLLI
B3: dolichyl-phosphate-mannose-protein mannosyltransferase (SMAC_06805) (protein, UniProt F7VSQ7 1-1145)
chain: MARSGKKSPAPPPAYAPAYAPPPAYEAVPTSAVVFKTKNNKNKSVKVKDDYSSDGVQDNDPFLLPGSDFTLLTITTIVSAIVRLFRIYQPSSVVFDEVHFGGFASKYIKGKFFMDVHPPLAKLMITLFGWLAGFDGNFDFKEIGKDYIEPGVPYVAMRMFPAICGILLAPTMFLTLKAAGCRSTTAFLGAGLIIFENGLLTQARLILLDSPLMIGTALTALGFTAFTNQQELGPAKAFTPSWWFWLAITGLGLGITASIKWVGLFTIAWVGSLTLIQLWVVLGDYKHVSPRAFTKHFMARAFCLIVIPLSFYLAMFGIHFLCLTNPGEGDGFMSSEFQSTLNSKGMQDVPADILMGSRVTIRHVNTQGGYLHSHPLMYPTGSKQQQITLYPHKDDNNIWLLENQTQPLGIDGQPINGTSAWNNLPETPYIKDGAILRLYHLPTHRRLHSHDVRPPVTEADWQNEVSAYGYEGFDGDANDFFRVEIVKKKSKGGVAQERLRTIDTKFKLVHIMTGCVLFSHKVKLPDWASEQQEVTCAKGGSLPNSLWYIESNDHPQLGADAEKVNYRNPGFFGKFWELQKVMWKTNAGLVESHAWDSRPEAWPILRRGINFWGRQHRQVYLMGNPIIWWSATAAVVLYVLFKGIAILRWQRSCNDYANPIFKRFDYEVGTSVLGWALHYFPFYLMQRQLFLHHYFPALYFAIIAFCQVFDFLTARISLVKDKVIFNRLGAVLFLALSMVVFWLFSPLAYGNPWTKAECKRVKLFSTWDFDCNTFPDSYDNYYGITPTSQAPSQTPVATPERPVVANAPPQAQKPIANQEQQAAKQEPSANPVGQRVISKEEKVEYRDQDGNLLNEEQVEALKGKVEFKTKYETRTRVIDANGNEIQLGGSGAPKVVPAPKASQPVAPPHPDVQGVDQETSNVPAAEEAVPEAEKSVDGVKEAEEKVAKPASESNEATASQEVEQSEEVKAAQERIQKIVERIQKVADNVDNLKNNVVEKAGDKVEQVEEKAEQVAEKAQEAAEPAKEKAAEAAEKVAEKAEEATEQSKEKVESVVDNVKEKVAERAEQVQEKAAEKAEQVQEKAAEKAEQVQEKVAERAEQVQEKAQEAGEKAQEVVLEKADQVEKKAEQVGEKDQEKTEAKDEL
B4: dolichyl-phosphate-mannose-protein mannosyltransferase (SMAC_08483) (protein, UniProt F7WA79 1-774)
chain: MASTTAIPEATLRQRNVPALTKKAKNGISSDVEIDKVPNAVAPAKSGSELEYKLALGLITGLAFLTRFWGISHPDEVVFDEVHFGKFASYYLERTYFFDVHPPFGKLLFAFMGWLVGYDGHFHFENIGDSYIRNKVPYVAFRSLPAILGALTVSVVYMIMWESGYSLPACLIAAGLVLLDNAHIGQTRLILLDATLVFAMACSLLCYIKFHKLRHEPFSRKWWKWLILTGFALSCDISTKYVGLFAFITIGSAVCIDLWDLLDIKRPGGALTLPQFGKHFAARAFGLIIMPFIFYLFWFQVHFSILTRSGPGDDFMTPEFQETLSDNIMLANAVTIDYYDTISLRHKETKAYLHSHPDKYPLRYDDGRVSSQGQQVTGYPFNDTNNYWQILPPGPDDQKLDHHIKNHDLVRLRHIVTDTILLSHDVASPYYPTNQEFTTVSIGDAYGDRAADTLFEIRIEHGKANQEFKSISSHFKLIHNPSKVAMWTHSKPLPEWGHKQQEINGNKQLAQSSNVWLVEDIVSLPADHPRRAKPEKKVKTLPFLRKWFELQRSMFWHNNQLTSSHPYASLPYQWPFLLRGVSFWTQNETRQQIYFLGNPIGWWLASSVLAIYVGIVLADQFSLRRGLDAMDRRTRSRLYNSTGFFFLAWATHYFPFFVMGRQLFLHHYLPAHLASALVTGSVVEFLFSTDSAEPDYHPSKSSKKVAPTTKRRLSARERLAGQSMAGAWIATAVIMALVAFGWYYFLPLTYGYPGLTAPEVNRRKWLGYDLHFAK
B5: signal recognition particle (SRP) receptor subunit beta (SMAC_09603) (protein, UniProt F7WCA6 1-355)
chain: MSTTIETIATTATVVATTAAAGASSNTSSYSTEHIKELVKDLLIASLQPNKTVIITGLLIVLLVPVILHQYLHGDESGSSSSSSSLPSIILAGPSGAGKTALLTLFEKRAGRKTSPSSTDEKTASGAEPALTHTSQTPVSVELNAASFSSSDEDRKPRKFLLIDTPGHPKLRSTALNHLLPLDPKTGRPLPPSKTSHIKGVLFLLDASTLSPSSPDSSLSQTATYLYDLLLALQHRYSRHSKGSKHPPSIPVLIAANKLDLFTALPATLVKKELEAEIGRIRVSRSKGLLDSGVKEDVVDEKEEGDDWLGEYGSEKFEFRQMQEFDIEVEVVGGSVAGTEGPGVEGWWRWVVERV
B6: translocation complex component (putative SEC63) (SMAC_02255) (protein, UniProt F7W331 1-700)
chain: MSTDYAYDEEGHLWPFFVFTLTSIVTVPITYSLIKSSRNDPAAALKRIHTDYKHDQSSVVDTLRKSEKRKDGSKPWLIALVIAGWAVMGYMLYLIKITDAPVQNLWNPYDILGISESATEKQIKKTYKMLSLKFHPDKARPDVAKNETIDDLNRRYVEISKAYQALTDEDVRNNFIQFGNPDGKQGFSINIALPKAIVSDGNGKYIVLIYFALFGVLLPYLVGSWWYGTLRRSKEGVLMESANRLFKEYQDNIDEGGVIAALSSGQEFEDLFKGDKADAGLSKIESKVMASDELPPKEKKKLEDVESGPRRKALALLWAYLGRIELGDATLEKAKFQVAPIAHALNKSFNAIALAYMNTAPLLASYFASQRLIQAIPPKASPLYQLPHFNSTIVEAVEGDSRVHTTVQAFMDQPDAKRRSLVVGKGLLTDAQYKESIAYAKQLPYLRVAKAFFKVTGEKFIIPSSLVTLVVKGRFVPPGSEKVPDVKPIDLDDIDPAEDDLDAILGRKKTKKLVGKDEKGKPIYEETTESEDIYPPLASSPYFARDHSPRWHVFLTDSKQGRVAVPPFTFVSFDRPIYEADGKTPTFAMQTLKAQFQAPPQAGHYTFVMHIVCDSYVGFDTKMEVTLVVEDASRAADMKVEEEISEPEEDSIAGIMNAAKGAPTKQRVIKDEDDSDEESGTDDDEDDDTSDTNTDTEAEN
B7: putative tricalbin (SMAC_02980) (protein, UniProt F7VY15 1-1470)
chain: MATQQSANELKQQGAIEAAQDPNSSVTAEQAEKKIVADSQELGITAFTFDPNASAADKAAQAREAIPHGLRRPKGLAIASDLDDGSKTDIDLPPPSKAGALDLPTTADGKVIEDDRTPEQVEADLIKKVGWAPRFGWPKNPEEEQDLLDHATFVESNLSENYFGVAVLGGGLGWVFIIMACCSTYYRTSLRRVRRNFRDDITRELGLKKLETDNESVEWINSFLVKFWPIYQPVLAQTVINSVDQVLSMSTPAFLDSLKLKTFTLGSKPPRMEHVKTYPKAEDEVVIMDWMFSFTPNDTADMTARQLQNKVNPKVVLEIRVGKAMISKGLDVIVEDMSFSGLMRLKIKFQMAFPHIEKVEMCFLERPKIDYVCKPLGGDTFGFDINFIPGLESFIQEMIHATLAPMMYAPNVFPIEVAKMLAGTPVDRAIGVVAITLHGAQGLKNPDKFSGTPDPYAVLSLSKRQPLAQTKVIKENDNPRWNETHYIIISSFNDSLDIDVFDFNDFRKDKKLGVTSFPLENLEEINEFENERLELKYDGKARGAVSCDIRFFPVLEEIKLPDGTVEPPPESNTGILSFTVEQAKELDSSKSMVGQLNPYAMLLLNGKEVHKTKTMKRTNQPIWPNGSKEILITDRKNAKLGVALKDDRDIAGDQLLGTYQIKLDDMLEFMAKGQDWYSLAGTKTGRVKMMAQWRPVAISGAAASTGGYTTPAGVMRLHFINARSLRNVEALGKSDPYVRVLLSGIEHGRTVTHKNNLNPDFDEVLYIPVHSPKERLQLDVMDAENMGRDRSLGLTEIFAGDYMKKDPETGEWLVHEKKDLRQDGLRMHGKGVAKGVLSYTVAFYPCLNIADPEDDEKEEQSDQSSEPKQSLDVPRSSDAGKFSSTLERTDSIKPENGGTSRPITPKTPVTPTSVVASRKSSDQKEPPKLRLNPQELLQYESGLIIFKLMEAELPKSQCRVEVCVDDYAFPSYVSSTSRTKTHTFDEIGDCFIRELEFSKLTIKINERSEKQEENGKENTLARLSGNTLDTLKQCLNNPTTLKLKNEDGKVYSIKVSLKYVPVRMQLDPSESINNMGHLRVDVLDAQNLPSADSNGKSDPYVKFEFNGQEVFKSKTVKKTLNPTWNEFFELPVPSRTAATFKALVWDWDFADKPDFLGSADINLGQLEPFRAQEVRLTLDGKSGVLRLRLLFRPDYVTRTRQGTSTLVGTFAVPGKIVTGVAGVPLKGVGAVGHGVGKGASFIKRGFRSNTKRDDDSDSNTNSSVELPTIITNAPEPPSGLKRSAVITEADGSSNELHHARTRSVGASSVRSAMFPGASSGTASFTVVSASGYPPSTDVYVTITQLKDGKSKAVGKTKHRKSSSGTVKFDETFNIQCTPDSQFKIEAKEHHTFGSDDHLGESVYFVDESNSGQEKALKVGSGTVYLKSGFVPSESAQDASSTLSPDQSPKSSSLRRSFLSKGARSPSRDGP

molecular target: SmPOM33-TagRFP-T (Sordaria macrospora) (UniProt F7VN14); assay: affinity purification with mass spectrometry; POM33-TagRFP-T precipitated from S. macrospora mycelium lysate (lysis buffer without NP-40) with anti-TagRFP-T antibody and Protein G Dynabeads, 4 °C; control free TagRFP-T strain; LC/MS with label-free quantification, FDR 0.01, S0 0.1; two experiments, seven samples

binding, binds:
B1
B2
B3
B4
B5
B6
B7

Results are given in words; binding and its absence hold for the method and conditions named. In cells and extracts the contact can be indirect. A yes stands for co-enrichment or nearness to the bait. Other partners may have been found.
